Data taken from patent US20050250692A1.
Results are given in words; binding and its absence hold for the method and conditions named. Some entries that bind do so weakly or less than the wild type.

Sequences of proteins named here, by UniProt entry; tags and fusion partners are left off. Residues count along the entry.
UniProt Q91ZX7, residues 20-4545: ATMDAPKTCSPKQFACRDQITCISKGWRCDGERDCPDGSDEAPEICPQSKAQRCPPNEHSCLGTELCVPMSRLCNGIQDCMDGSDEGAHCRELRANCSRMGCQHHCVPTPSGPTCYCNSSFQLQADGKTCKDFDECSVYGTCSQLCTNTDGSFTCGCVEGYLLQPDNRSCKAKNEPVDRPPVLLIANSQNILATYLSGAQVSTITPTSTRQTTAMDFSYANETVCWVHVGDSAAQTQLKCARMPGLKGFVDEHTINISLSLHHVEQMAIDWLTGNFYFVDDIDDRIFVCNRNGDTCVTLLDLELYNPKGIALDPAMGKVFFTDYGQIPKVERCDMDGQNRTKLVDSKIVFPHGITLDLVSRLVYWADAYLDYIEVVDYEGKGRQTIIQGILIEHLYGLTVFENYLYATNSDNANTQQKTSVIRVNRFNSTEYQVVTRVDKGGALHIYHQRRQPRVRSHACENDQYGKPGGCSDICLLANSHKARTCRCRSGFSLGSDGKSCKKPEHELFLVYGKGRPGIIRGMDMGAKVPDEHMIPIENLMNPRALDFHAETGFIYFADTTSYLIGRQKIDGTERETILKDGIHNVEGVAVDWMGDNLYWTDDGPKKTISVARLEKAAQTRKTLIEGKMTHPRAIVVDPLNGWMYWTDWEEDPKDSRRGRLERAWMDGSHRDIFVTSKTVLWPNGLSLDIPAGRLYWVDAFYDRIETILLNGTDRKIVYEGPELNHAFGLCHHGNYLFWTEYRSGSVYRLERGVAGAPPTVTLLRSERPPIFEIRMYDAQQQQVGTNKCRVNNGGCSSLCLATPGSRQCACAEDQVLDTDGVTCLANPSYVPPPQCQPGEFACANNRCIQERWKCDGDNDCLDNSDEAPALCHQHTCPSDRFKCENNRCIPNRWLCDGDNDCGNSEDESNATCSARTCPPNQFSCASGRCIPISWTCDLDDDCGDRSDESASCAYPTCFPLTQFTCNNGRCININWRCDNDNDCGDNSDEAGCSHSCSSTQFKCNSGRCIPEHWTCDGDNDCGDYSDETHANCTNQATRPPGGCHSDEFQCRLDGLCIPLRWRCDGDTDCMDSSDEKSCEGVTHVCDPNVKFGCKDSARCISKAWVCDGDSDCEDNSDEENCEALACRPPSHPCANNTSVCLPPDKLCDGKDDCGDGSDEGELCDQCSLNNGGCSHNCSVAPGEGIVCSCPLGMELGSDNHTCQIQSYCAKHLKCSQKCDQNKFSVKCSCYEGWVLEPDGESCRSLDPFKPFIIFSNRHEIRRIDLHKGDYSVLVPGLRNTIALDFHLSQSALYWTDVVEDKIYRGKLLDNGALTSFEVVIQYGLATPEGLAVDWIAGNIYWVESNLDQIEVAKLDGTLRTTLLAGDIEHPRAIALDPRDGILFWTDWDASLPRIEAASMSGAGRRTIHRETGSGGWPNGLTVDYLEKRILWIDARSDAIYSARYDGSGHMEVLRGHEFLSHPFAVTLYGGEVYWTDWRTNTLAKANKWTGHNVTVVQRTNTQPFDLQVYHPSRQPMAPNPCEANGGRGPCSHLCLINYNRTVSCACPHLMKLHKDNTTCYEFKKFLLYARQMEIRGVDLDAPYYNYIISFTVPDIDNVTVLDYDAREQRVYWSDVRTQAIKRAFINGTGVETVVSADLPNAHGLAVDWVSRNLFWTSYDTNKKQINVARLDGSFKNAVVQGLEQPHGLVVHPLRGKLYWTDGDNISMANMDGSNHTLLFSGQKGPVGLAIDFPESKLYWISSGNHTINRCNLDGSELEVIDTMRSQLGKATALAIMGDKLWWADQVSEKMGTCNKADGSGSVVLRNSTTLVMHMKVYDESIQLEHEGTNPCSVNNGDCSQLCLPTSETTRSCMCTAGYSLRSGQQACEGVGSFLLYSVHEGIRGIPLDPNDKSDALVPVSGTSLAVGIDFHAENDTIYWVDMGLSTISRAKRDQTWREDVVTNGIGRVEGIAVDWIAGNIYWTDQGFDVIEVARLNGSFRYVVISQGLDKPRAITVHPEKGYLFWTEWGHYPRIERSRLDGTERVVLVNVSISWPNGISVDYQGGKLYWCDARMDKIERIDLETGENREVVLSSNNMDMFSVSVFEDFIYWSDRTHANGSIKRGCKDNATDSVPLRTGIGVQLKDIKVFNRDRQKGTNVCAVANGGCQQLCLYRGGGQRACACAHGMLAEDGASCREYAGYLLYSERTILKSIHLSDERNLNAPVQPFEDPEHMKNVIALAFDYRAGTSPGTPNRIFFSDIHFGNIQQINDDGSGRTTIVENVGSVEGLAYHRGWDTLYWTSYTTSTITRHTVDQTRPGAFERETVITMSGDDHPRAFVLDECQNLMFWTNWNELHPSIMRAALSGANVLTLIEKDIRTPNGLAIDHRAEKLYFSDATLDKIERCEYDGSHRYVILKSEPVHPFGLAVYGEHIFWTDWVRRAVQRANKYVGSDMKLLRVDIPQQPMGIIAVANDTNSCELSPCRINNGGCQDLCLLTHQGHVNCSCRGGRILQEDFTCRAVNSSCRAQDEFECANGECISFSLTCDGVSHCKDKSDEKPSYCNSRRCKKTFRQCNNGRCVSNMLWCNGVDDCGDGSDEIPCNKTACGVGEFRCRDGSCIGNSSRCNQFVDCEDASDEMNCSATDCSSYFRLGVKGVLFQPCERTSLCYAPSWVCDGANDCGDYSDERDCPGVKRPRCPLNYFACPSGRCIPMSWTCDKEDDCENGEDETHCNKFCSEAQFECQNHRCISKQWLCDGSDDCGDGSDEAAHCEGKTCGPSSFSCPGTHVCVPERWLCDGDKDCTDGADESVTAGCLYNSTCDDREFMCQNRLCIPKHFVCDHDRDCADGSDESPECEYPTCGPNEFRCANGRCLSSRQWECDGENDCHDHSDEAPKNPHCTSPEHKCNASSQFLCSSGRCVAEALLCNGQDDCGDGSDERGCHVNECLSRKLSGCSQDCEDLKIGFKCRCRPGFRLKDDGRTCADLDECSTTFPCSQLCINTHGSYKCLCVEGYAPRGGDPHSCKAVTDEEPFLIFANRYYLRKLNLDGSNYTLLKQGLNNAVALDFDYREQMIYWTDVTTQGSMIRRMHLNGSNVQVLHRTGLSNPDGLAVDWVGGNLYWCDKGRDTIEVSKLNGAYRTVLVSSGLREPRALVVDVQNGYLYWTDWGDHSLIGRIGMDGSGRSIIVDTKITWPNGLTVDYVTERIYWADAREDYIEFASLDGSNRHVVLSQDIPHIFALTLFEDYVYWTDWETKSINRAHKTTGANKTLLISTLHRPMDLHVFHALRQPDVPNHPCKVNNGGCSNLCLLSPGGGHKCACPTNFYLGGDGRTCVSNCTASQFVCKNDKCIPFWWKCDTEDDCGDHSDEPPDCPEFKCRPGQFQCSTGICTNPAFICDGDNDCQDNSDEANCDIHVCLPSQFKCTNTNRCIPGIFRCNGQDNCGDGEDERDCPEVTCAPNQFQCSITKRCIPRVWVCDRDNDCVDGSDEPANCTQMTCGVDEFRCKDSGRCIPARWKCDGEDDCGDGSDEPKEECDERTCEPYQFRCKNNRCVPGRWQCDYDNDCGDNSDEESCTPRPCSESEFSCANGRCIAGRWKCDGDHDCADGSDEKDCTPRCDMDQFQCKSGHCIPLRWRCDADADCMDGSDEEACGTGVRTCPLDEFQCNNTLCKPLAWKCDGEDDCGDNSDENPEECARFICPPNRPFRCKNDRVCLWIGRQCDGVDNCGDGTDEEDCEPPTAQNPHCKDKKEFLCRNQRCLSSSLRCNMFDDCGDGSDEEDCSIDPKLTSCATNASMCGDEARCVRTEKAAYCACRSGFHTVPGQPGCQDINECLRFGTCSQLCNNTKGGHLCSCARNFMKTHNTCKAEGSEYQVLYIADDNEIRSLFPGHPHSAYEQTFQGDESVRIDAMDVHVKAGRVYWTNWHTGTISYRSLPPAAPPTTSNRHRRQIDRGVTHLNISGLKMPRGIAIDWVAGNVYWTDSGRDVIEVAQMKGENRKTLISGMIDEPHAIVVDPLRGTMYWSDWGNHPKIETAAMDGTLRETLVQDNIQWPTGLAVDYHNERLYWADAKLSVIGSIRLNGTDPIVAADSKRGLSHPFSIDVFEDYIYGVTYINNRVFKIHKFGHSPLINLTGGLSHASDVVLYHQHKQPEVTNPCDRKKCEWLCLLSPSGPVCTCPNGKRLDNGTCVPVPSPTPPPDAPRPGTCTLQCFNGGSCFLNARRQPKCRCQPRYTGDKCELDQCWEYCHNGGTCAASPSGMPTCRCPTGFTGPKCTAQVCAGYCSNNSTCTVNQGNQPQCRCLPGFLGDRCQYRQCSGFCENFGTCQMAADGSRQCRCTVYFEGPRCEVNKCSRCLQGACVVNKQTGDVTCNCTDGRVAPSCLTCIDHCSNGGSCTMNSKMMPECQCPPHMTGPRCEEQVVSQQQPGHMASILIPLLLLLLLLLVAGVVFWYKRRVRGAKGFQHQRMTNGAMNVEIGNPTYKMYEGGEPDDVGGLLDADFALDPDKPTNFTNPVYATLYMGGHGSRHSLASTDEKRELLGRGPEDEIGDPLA

T1: α2M activated by methylamine (α2M*) (human) (UniProt P01023)
T1 sequence (activated by methylamine; 125I-labelled where used as tracer, looked up): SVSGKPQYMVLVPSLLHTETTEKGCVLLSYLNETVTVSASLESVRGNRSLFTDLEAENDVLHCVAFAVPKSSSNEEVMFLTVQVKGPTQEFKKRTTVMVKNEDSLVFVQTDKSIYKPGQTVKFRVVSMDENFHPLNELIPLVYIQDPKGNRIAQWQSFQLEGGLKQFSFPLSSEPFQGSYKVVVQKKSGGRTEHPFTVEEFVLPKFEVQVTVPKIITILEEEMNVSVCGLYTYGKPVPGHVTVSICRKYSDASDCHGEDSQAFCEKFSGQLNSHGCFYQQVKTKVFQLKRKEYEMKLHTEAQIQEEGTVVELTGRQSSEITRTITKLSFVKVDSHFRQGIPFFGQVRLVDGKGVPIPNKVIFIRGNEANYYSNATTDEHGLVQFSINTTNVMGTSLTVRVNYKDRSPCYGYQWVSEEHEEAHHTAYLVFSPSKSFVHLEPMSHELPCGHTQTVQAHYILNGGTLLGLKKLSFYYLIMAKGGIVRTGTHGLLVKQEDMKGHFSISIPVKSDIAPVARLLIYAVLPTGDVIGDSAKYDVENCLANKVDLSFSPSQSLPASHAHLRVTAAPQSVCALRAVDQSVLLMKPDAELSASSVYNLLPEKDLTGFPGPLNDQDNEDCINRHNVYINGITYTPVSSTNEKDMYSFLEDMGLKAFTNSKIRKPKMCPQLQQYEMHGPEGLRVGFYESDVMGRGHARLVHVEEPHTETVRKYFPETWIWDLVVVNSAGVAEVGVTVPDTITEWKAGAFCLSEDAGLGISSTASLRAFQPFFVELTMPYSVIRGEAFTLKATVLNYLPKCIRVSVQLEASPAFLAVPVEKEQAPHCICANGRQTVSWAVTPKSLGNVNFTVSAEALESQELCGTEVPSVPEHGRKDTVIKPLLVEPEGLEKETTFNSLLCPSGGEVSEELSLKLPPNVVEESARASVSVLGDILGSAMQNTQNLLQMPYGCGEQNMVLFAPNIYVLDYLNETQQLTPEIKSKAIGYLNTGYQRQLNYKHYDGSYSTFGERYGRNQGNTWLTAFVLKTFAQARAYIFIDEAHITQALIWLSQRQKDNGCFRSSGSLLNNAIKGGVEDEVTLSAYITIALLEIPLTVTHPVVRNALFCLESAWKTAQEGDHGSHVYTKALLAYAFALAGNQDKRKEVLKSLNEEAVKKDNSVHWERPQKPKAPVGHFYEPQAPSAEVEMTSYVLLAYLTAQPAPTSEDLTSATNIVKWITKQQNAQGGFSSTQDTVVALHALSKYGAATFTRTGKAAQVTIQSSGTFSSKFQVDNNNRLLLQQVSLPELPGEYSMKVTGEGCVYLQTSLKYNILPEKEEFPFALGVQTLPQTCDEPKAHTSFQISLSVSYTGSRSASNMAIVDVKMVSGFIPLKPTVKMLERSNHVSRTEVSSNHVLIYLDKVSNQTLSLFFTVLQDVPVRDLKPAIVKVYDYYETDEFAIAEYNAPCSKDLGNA


What was measured:
[1] = molecular target: LRP-1 in mouse embryonic fibroblasts (MEF cells) (mouse) (UniProt Q91ZX7); assay: cell surface binding of 125I-α2M* to MEF cells at pH 7.4, 0 C
[2] = molecular target: LRP-1 in mouse embryonic fibroblasts (MEF cells) (mouse) (UniProt Q91ZX7); assay: specific binding of 2 nM 125I-α2M* to MEF cells at pH 7.4, 0 C
[3] = molecular target: T1, α2M activated by methylamine (α2M*) (human); assay: α2M*-Sepharose 4B affinity chromatography of Triton X-100 extracts of bovine liver plasma membranes, 4 mM Ca2+, eluted with 10 mM EDTA
[4] = molecular target: T1, α2M activated by methylamine (α2M*) (human); assay: α2M*-Sepharose affinity chromatography at pH 6 and 5
[5] = molecular target: T1, α2M activated by methylamine (α2M*) (human); assay: α2M*-affinity column chromatography at acidic pH

binding [1] | binding [2] | binding [3] | binding [4] | binding [5] | Binder
binds | binds | – | – | – | α2M activated by methylamine (α2M*) (ligand, human, UniProt P01023 24-1474, looked up, activated by methylamine; 125I-labelled where used as tracer) SVSGKPQYMVLVPSLLHTETTEKGCVLLSYLNETVTVSASLESVRGNRSLFTDLEAENDVLHCVAFAVPKSSSNEEVMFLTVQVKGPTQEFKKRTTVMVKNEDSLVFVQTDKSIYKPGQTVKFRVVSMDENFHPLNELIPLVYIQDPKGNRIAQWQSFQLEGGLKQFSFPLSSEPFQGSYKVVVQKKSGGRTEHPFTVEEFVLPKFEVQVTVPKIITILEEEMNVSVCGLYTYGKPVPGHVTVSICRKYSDASDCHGEDSQAFCEKFSGQLNSHGCFYQQVKTKVFQLKRKEYEMKLHTEAQIQEEGTVVELTGRQSSEITRTITKLSFVKVDSHFRQGIPFFGQVRLVDGKGVPIPNKVIFIRGNEANYYSNATTDEHGLVQFSINTTNVMGTSLTVRVNYKDRSPCYGYQWVSEEHEEAHHTAYLVFSPSKSFVHLEPMSHELPCGHTQTVQAHYILNGGTLLGLKKLSFYYLIMAKGGIVRTGTHGLLVKQEDMKGHFSISIPVKSDIAPVARLLIYAVLPTGDVIGDSAKYDVENCLANKVDLSFSPSQSLPASHAHLRVTAAPQSVCALRAVDQSVLLMKPDAELSASSVYNLLPEKDLTGFPGPLNDQDNEDCINRHNVYINGITYTPVSSTNEKDMYSFLEDMGLKAFTNSKIRKPKMCPQLQQYEMHGPEGLRVGFYESDVMGRGHARLVHVEEPHTETVRKYFPETWIWDLVVVNSAGVAEVGVTVPDTITEWKAGAFCLSEDAGLGISSTASLRAFQPFFVELTMPYSVIRGEAFTLKATVLNYLPKCIRVSVQLEASPAFLAVPVEKEQAPHCICANGRQTVSWAVTPKSLGNVNFTVSAEALESQELCGTEVPSVPEHGRKDTVIKPLLVEPEGLEKETTFNSLLCPSGGEVSEELSLKLPPNVVEESARASVSVLGDILGSAMQNTQNLLQMPYGCGEQNMVLFAPNIYVLDYLNETQQLTPEIKSKAIGYLNTGYQRQLNYKHYDGSYSTFGERYGRNQGNTWLTAFVLKTFAQARAYIFIDEAHITQALIWLSQRQKDNGCFRSSGSLLNNAIKGGVEDEVTLSAYITIALLEIPLTVTHPVVRNALFCLESAWKTAQEGDHGSHVYTKALLAYAFALAGNQDKRKEVLKSLNEEAVKKDNSVHWERPQKPKAPVGHFYEPQAPSAEVEMTSYVLLAYLTAQPAPTSEDLTSATNIVKWITKQQNAQGGFSSTQDTVVALHALSKYGAATFTRTGKAAQVTIQSSGTFSSKFQVDNNNRLLLQQVSLPELPGEYSMKVTGEGCVYLQTSLKYNILPEKEEFPFALGVQTLPQTCDEPKAHTSFQISLSVSYTGSRSASNMAIVDVKMVSGFIPLKPTVKMLERSNHVSRTEVSSNHVLIYLDKVSNQTLSLFFTVLQDVPVRDLKPAIVKVYDYYETDEFAIAEYNAPCSKDLGNA
– | – | binds | binds | binds | bovine annexin VI (~68 kDa protein purified from bovine liver plasma membranes) (protein, UniProt P79134 2-673, looked up) AKPAQGAKYRGSIRDFPDFNPSQDAETLYNAMKGFGSDKEAILELITSRSNRQRQEICQNYKSLYGKDLIADLKYELTGKFERLIVGLMRPPAYADAKEIKDAISGIGTDEKCLIEILASRTNEQIHQLVAAYKDAYERDLEADITGDTSGHFRKMLVVLLQGTREEDDVVSEDLVQQDVQDLYEAGELKWGTDEAQFIYILGNRSKQHLRLVFDEYLKTTGKPIEASIRGELSGDFEKLMLAVVKCIRSTAEYFAERLFKAMKGLGTRDNTLIRIMVSRSELDMLDIREIFRTKYEKSLYSMIKNDTSGEYKKTLLKLCGGDDDAAGQFFPEAAQVAYQMWELSAVARVELKGTVRPAGDFNPDADAKALRKAMKGLGTDEDTIIDIIAHRSNAQRQQIRQTFKSHFGRDLMADLKSELSGDLARLILGLMMPPAHYDAKQLKKAMEGAGTDEKALIEILATRTNAEIQAINKAYKEDYHKSLEDALSSDTSGHFKRILISLATGNREEGGEDRERAREDAQVAAEILEIADTTSGDKSSLETRFMMILCTRSYPHLRRVFQEFIKMTNYDVEHTIKKEMSGDVRDVFVAIVQSVKNKPLFFADKLYKSMKGAGTDEKTLTRIMVSRSEIDLLNIRREFIEKYDKSLHQAIEGDTSGHFLKALLAICGGED
